Results are given in words; binding and its absence hold for the method and conditions named. Binding seen in cells or lysates may run through a third protein. Some results given as binding are weak or reduced against the parent protein; the word gives no strength. Sequences can lack the tags named with a protein.
What was measured:
[1] = biological target: VPS28-Myc (VPS28 transcript NM_016208.3 fused to a Myc tag at the C-terminus) (UniProt Q9UK41); experiment: co-immunoprecipitation with anti-HA or anti-Myc antibodies, HEK293T lysate, Western blot
[2] = biological target: VPS28-Myc (VPS28 transcript NM_016208.3 fused to a Myc tag at the C-terminus) (UniProt Q9UK41); experiment: co-immunoprecipitation, HEK293T lysate, Western blot

The chains behind the UniProt entries cited, without tags or fusion partners.
UniProt Q9UK41: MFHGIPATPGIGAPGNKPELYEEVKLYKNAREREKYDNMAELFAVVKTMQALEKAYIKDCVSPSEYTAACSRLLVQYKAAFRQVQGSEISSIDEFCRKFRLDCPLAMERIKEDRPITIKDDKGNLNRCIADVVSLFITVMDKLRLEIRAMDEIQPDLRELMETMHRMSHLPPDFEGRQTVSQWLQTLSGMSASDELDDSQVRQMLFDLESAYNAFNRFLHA

binding [1]: binds
binding [2]: binds
B1: HA-WT-UBAP1 (wild-type Ubiquitin Associated Protein 1, transcript 1 NM_016525.4, fused with a 3x-HA tag at the N-terminus) (protein, not shown: small tags and cut ends)
chain: MASKKLGADFHGTFSYLDDVPFKTGDKFKTPAKVGLPIGFSLPDCLQVVREVQYDFSLEKKTIEWAEEIKKIEEAEREAERKIAEAEAKVNSKSGPEGDSKMSFSKTHSTATMPPPINPILASLQHNSILTPTRVSSSATKQKVLSPPHIKADFNLADFECEEDPFDNLELKTIDEKEELRNILVGTTGPIMAQLLDNNLPRGGSGSVLQDEEVLASLERATLDFKPLHKPNGFITLPQLGNCEKMSLSSKVSLPPIPAVSNIKSLSFPKLDSDDSNQKTAKLASTFHSTSCLRNGTFQNSLKPSTQSSASELNGHHTLGLSALNLDSGTEMPALTSSQMPSLSVLSVCTEESSPPNTGPTVTPPNFSVSQVPNMPSCPQAYSELQMLSPSERQCVETVVNMGYSYECVLRAMKKKGENIEQILDYLFAHGQLCEKGFDPLLVEEALEMHQCSEEKMMEFLQLMSKFKEMGFELKDIKEVLLLHNNDQDNALEDLMARAGAS

From patent publication US20220177527A1
